{"source": "paper PMC13371181", "about": "“A paracrine-to-autocrine shunt of GREM1 fuels colorectal cancer metastasis via ACVR1C” (Molecular Cancer, 2026)", "binders": {"B1": {"name": "activin A receptor type 1C (ACVR1C), endogenous in HCT116 (receptor, UniProt Q8NER5 21-493)", "chain": "ELSPGLKCVCLLCDSSNFTCQTEGACWASVMLTNGKEQVIKSCVSLPELNAQVFCHSSNNVTKTECCFTDFCNNITLHLPTASPNAPKLGPMELAIIITVPVCLLSIAAMLTVWACQGRQCSYRKKKRPNVEEPLSECNLVNAGKTLKDLIYDVTASGSGSGLPLLVQRTIARTIVLQEIVGKGRFGEVWHGRWCGEDVAVKIFSSRDERSWFREAEIYQTVMLRHENILGFIAADNKDNGTWTQLWLVSEYHEQGSLYDYLNRNIVTVAGMIKLALSIASGLAHLHMEIVGTQGKPAIAHRDIKSKNILVKKCETCAIADLGLAVKHDSILNTIDIPQNPKVGTKRYMAPEMLDDTMNVNIFESFKRADIYSVGLVYWEIARRCSVGGIVEEYQLPYYDMVPSDPSIEEMRKVVCDQKFRPSIPNQWQSCEALRVMGRIMRECWYANGAARLTALRIKKTISQLCVKEDCKA"}}, "biological_target": "T1, HA-mCherry-tagged GREM1 (Gremlin 1) (human) (UniProt O60565)", "T1 sequence": "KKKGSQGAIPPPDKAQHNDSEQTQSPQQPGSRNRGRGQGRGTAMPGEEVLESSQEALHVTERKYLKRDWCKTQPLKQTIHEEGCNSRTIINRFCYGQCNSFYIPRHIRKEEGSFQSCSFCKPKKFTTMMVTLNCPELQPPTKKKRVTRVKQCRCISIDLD", "assay": "affinity purification with mass spectrometry; lysate of HCT116 cells transfected with HA-mCherry-GREM1, anti-HA magnetic beads, NP40 lysis buffer, overnight 4 °C; a ~110 kDa Coomassie band submitted for MS", "note": "Results are given in words; binding and its absence hold for the method and conditions named. Binding seen in cells or lysates may run through a third protein. A yes stands for co-enrichment or nearness to the bait. Other partners may have been found. Sequences can lack the tags named with a protein.", "data": [{"binder": "B1", "values": [{"measurement": "binding", "result": "binds"}]}]}
